Literature values, collected in patent US20260041696A1, “IN-SITU PRODUCTION OF ANTI-INFLAMMATORY LIPIDS USING MILK FAT GLOBULES” (THE REGENTS OF THE UNIVERSITY OF CALIFORNIA, priority 2023, published 2026).
At least one compound was matched to its structure with a doubt left.

What was measured:
CYP2J2 = biological target: T1, CYP2J2 (Homo sapiens, UniProt P51589)
T1 sequence (P51589 1-502): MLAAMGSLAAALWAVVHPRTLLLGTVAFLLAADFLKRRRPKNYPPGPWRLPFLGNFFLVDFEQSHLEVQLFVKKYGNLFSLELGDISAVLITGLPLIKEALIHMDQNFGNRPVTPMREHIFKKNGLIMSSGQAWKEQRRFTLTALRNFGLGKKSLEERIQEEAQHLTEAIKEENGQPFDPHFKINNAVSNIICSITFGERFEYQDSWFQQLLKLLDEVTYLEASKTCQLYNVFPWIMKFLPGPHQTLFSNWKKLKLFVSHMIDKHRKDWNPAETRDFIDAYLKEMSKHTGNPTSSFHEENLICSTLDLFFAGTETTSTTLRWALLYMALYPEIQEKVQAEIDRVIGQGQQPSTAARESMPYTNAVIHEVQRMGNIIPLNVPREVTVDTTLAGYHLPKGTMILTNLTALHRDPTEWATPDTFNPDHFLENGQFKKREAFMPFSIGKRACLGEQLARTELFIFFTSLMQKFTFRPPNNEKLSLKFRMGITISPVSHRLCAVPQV

CYP1A1 = biological target: T2, CYP1A1 (Homo sapiens, UniProt P04798)
T2 sequence (P04798 1-512): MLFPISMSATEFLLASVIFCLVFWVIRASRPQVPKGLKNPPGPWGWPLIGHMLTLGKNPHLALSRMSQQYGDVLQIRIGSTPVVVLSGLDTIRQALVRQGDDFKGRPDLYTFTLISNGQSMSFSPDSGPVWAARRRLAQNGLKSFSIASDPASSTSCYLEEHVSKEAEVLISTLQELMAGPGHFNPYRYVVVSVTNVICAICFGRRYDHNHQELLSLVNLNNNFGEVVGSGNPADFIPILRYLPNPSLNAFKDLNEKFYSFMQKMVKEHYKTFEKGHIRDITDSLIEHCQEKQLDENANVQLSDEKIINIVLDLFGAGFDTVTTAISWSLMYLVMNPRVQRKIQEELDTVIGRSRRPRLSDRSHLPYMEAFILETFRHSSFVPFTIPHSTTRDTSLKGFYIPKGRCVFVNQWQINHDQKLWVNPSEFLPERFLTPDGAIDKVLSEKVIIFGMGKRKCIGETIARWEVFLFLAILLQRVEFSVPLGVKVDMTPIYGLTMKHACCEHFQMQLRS

In the case of `CC/C=C\C/C=C\C/C=C\C/C=C\C/C=C\C/C=C\CCC(=O)O` [DHA, docosahexaenoic acid], the “metabolic rate of DHA epoxidation” value (CYP2J2) is listed as 0.2 μmol/min/pmol of CYP450 and the “metabolic rate of DHA epoxidation” value (CYP1A1) is listed as 0.5 μmol/min/pmol of CYP450.
